According to patent publication US20110176995A1 (Chugai, published 2011):
No constants are given. Whether binding was seen depends on the method and setting. Some entries that bind do so weakly or less than the wild type. Tags and fused reporters may be left off the sequences shown.

T1: GST fusion protein with GPR49 amino acids from positions 517 to 537 (human)
T1 sequence: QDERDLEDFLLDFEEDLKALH

T2: GST fusion protein with GPR49 amino acids from positions 510 to 529 (human)
T2 sequence: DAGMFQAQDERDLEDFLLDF


How the values were obtained:
[1] = molecular target: T1, GST fusion protein with GPR49 amino acids from positions 517 to 537 (human); experiment: Western blotting of GST fusion proteins
[2] = molecular target: T2, GST fusion protein with GPR49 amino acids from positions 510 to 529 (human); experiment: Western blotting of GST fusion proteins

binding [1]	binding [2]	Binder
binds	–	anti-GPR49 monoclonal antibody 2U1E-1 (antibody, mouse IgG1, V domains shown, Mouse IgG1 from hybridoma; light chain amplified with a kappa primer) VH: QVQLQQPGAELVEPGASVKLSCKASGYTFTNYYMYWVKQRPGQGLEWIGGINPNNGGTNFNEKFKSKATLTVDKSSSTAYMQLSSLTSEDSAVYYCTGIYYRYNWHFGVWGAGTTVTVSS VL: DVLMTQTPLSLPVSLGDQASISCRSSQTIVHSNGNTYLEWYLQKPGQSPKLLIYKVSNRFSGVPDRFSGSGSGTDFTLKIYRVEAEDLGIYYCFQGSHVPWTFGGGTKLEIK
–	binds	anti-GPR49 monoclonal antibody 2T15E-2 (antibody, mouse IgG1, V domains shown, Mouse IgG1 from hybridoma; light chain amplified with a kappa primer) VH: EVQLVESGGGLVKPGGSLKISCAASGFTSSNYAMSWVRQTPEKRLEWVATISSGGGYTYYPDSEKGRFAISRDNAKNTLYLQMSGLRSEDTAMYYCATQLYYRSHYYSMDYWGQGSSVTVSS VL: QIVLTQSPAIMSASPGEKVTMTCSASSSISYMHWYQQKSGTSPKRWIYDTSKLASGVPARFSGSGSGTSYSLTISSMEAEDAATYYCQQWHSKPATFGAGTKLELK
